Assay results published in article PMC3798266.
No constants are given. Whether binding was seen depends on the method and setting. For some assays here: In cells and extracts the contact can be indirect. Some results given as binding are weak or reduced against the parent protein; the word gives no strength.

By UniProt entry, the sequences of proteins in these tests, tags left out.
UniProt P00359: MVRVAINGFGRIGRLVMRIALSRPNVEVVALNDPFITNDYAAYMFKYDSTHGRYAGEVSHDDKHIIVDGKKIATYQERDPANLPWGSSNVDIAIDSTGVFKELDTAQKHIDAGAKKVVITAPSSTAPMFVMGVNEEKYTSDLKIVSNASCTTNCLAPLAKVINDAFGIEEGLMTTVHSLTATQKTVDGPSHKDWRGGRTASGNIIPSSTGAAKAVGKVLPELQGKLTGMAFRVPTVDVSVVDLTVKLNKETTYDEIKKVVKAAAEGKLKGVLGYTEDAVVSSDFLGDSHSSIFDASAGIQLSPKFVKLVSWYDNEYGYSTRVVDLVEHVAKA
UniProt P06700: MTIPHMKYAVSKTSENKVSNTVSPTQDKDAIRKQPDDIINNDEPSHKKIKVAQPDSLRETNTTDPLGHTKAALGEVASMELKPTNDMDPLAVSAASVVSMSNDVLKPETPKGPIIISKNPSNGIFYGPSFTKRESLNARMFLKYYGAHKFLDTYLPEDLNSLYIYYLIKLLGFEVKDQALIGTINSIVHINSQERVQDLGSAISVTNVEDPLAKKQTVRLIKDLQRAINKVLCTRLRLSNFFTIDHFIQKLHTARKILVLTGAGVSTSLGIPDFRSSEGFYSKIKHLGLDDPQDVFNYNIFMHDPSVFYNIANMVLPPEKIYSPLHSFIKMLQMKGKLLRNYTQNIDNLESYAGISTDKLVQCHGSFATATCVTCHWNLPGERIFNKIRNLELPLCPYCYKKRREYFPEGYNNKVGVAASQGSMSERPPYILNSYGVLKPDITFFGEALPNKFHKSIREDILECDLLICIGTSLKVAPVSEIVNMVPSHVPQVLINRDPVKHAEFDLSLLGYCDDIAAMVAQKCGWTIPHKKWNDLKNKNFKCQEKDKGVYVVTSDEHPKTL

Legend:
[1] = target: Tdh3-myc fusion protein (budding yeast) (UniProt P00359); assay: co-IP; Tdh3-myc precipitated from yeast cell lysate (lysis buffer with 1.5% Triton X-100) with anti-Myc agarose conjugate, overnight at 4°C, washed with PBS; western blot with an antibody to Sir2; control lysate from a strain lacking the myc tag
[2] = target: Tdh3-BD (Tdh3 fused to the DNA binding domain of Gal4) (budding yeast) (UniProt P00359); assay: two-hybrid; Tdh3 as Gal4 DNA-binding-domain fusion, Sir2 as Gal4 activation-domain fusion; HIS3 reporter, growth on -HIS media; strain YSH625 lacking the endogenous SIR2, SIR3 and SIR4 genes

Substance: Sir2 (from UniProt P06700 1-562)
- binding [1]: binds

Substance: Sir2-AD (Sir2 fused to the transcriptional activation domain of Gal4) (from UniProt P06700 1-562)
- binding [2]: binds
